From PMC11892261 come the findings set out here.

Protein sequences, listed by entry. Tags and fused reporters are not part of them.
UniProt P26038: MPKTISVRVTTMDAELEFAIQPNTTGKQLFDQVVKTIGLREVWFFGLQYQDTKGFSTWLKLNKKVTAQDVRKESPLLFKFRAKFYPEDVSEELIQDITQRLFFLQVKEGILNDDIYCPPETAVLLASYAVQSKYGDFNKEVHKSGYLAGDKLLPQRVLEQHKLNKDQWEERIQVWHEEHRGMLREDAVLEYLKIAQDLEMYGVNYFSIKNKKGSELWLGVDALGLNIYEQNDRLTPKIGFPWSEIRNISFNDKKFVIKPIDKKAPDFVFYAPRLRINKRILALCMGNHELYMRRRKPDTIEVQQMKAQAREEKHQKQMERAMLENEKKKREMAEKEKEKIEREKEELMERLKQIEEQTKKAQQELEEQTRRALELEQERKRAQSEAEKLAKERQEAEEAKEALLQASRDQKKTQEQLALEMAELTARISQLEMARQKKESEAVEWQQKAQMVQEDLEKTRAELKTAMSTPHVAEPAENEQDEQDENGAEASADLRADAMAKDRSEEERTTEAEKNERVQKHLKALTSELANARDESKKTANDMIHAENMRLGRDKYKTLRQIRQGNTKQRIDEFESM
UniProt P14618: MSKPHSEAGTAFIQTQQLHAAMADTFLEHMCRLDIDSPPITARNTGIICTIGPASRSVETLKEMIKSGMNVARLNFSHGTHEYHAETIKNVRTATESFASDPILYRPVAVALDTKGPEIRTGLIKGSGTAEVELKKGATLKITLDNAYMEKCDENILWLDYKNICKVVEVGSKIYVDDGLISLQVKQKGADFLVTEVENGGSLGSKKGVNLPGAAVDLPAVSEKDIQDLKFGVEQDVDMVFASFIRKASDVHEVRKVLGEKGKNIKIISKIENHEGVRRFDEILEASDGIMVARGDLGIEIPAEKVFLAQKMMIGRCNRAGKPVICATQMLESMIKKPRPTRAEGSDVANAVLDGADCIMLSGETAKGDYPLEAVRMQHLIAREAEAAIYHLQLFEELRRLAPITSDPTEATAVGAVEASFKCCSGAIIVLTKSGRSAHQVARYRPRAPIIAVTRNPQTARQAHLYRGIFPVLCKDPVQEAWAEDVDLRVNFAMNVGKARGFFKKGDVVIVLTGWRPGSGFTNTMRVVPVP

No constants are given. Whether binding was seen depends on the method and setting. In cells and extracts the contact can be indirect. Here binding means that the protein was enriched with, or labelled near, the bait; the list need not be complete. Tags and fused reporters may be left off the sequences shown.

The test has as its target T1, NONO-BioID2 fusion protein (UniProt Q15233).
T1 sequence: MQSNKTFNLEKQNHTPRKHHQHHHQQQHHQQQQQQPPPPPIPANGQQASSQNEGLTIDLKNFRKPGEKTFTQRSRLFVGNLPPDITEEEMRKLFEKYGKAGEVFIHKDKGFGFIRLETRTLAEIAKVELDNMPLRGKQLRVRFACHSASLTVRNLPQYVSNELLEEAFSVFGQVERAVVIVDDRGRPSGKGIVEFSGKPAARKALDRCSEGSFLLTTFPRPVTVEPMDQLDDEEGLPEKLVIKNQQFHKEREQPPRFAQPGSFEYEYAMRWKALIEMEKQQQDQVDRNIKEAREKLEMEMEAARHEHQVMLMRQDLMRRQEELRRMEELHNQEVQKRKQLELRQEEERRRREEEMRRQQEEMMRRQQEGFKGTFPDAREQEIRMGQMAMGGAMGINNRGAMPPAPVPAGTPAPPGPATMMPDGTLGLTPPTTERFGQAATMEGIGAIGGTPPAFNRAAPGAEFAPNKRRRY
Briefly: proximity labelling; BioID2: NONO-BioID2 or BioID2 alone in MDA-MB-231 cells, 50 µM biotin for 16-18 h, streptavidin affinity purification, quantitative mass spectrometry.

Take “Moesin (MSN), endogenous (from UniProt P26038 1-577)”: the binding entry is “binds”.
The entry for “PKM2 (pyruvate kinase isozyme type M2), endogenous (from UniProt P14618 1-531)” is “binds”.
